Results are given in words; binding and its absence hold for the method and conditions named. Some results given as binding are weak or reduced against the parent protein; the word gives no strength.
How the values were obtained:
[1] = biological target: recombinant human galectin-9 (human) (UniProt O00182); assay: phage ELISA on biotinylated His-GAL-9
[2] = biological target: recombinant human galectin-9 (human) (UniProt O00182); assay: phage ELISA, 384-well plate, anti-M13-HRP
[3] = biological target: recombinant human galectin-9 (human) (UniProt O00182); assay: ELISA: sdAb immobilized at 1 µM, increasing GAL-9, anti-GAL-9 detection
[4] = biological target: recombinant C-terminal domain of human GAL-9 (human) (UniProt O00182); assay: ELISA: sdAb immobilized at 1 µM, 5 µM GAL-9C
[5] = biological target: recombinant N-terminal domain of human GAL-9 (human) (UniProt O00182); assay: ELISA: sdAb immobilized at 1 µM, 5 µM GAL-9N
[6] = biological target: recombinant human galectin-9 (human) (UniProt O00182); assay: ELISA: sdAb immobilized at 1 µM, 5 µM galectin

Protein sequences, listed by entry. Tags and fused reporters are not part of them. Lines headed by an entry give the natural chain unless they say otherwise; changes in a name come on top. Chains listed by the source or under a name are the forms on record and can include a tag or linker.
recombinant human galectin-9 (O00182, form named): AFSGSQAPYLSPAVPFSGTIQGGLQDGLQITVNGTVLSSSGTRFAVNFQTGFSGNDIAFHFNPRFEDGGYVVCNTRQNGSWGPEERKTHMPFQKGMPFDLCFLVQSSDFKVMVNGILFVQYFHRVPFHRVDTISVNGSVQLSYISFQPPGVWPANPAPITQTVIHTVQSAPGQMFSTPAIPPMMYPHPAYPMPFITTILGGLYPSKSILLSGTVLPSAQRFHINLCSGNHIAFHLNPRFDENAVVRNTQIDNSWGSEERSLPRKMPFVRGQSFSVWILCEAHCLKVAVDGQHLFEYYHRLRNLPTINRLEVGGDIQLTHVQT

Measured: binding

B1: G9N4 (VHH)
VHH: EVQLQASGGGFVQPGGSLRLSCAASGGTWRWTIMGWFRQAPGKEREFVSAISRTNSEYQYYADSVKGRFTISRDNSKNTVYLQMNSLRAEDTATYYCAEPTAVWADKGQEMQSYWGQGTQVTVSS
notes: Synthetic humanized sdAb; on M13 phage in the screening ELISA, purified with His and cMyc tags and immobilized in wells otherwise; also called GAL-9-specific sdAb G9N4; not shown: 6xHis and cMyc tags from vector pHEN2
binds: [1] | [2] | [3]

B2: G9N2 (VHH, not shown: small tags and cut ends)
VHH: EVQLQASGGGFVQPGGSLRLSCAASGSTSADSTMGWFRQAPGKEREFVSAISENNGADRYYADSVKGRFTISRDNSKNTVYLQMNSLRAEDTATYYCAYWKIAYTKQYEFLRYWGQGTQVTVSS
binds: all assays above

B3: G9N3 (VHH)
VHH: EVQLQASGGGFVQPGGSLRLSCAASGDGSGWDIMGWFRQAPGKEREFVSAISRHDTTYSYYADSVKGRFTISRDNSKNTVYLQMNSLRAEDTATYYCATIPASWNKSYWGQGTQVTVSS
notes: Synthetic humanized sdAb; on M13 phage in the screening ELISA, purified with His and cMyc tags and immobilized in wells otherwise; also called GAL-9-specific sdAb G9N3; not shown: 6xHis and cMyc tags from vector pHEN2
binds: [1] | [2] | [6] | [3]

From patent publication US20260201043A1 (INSTITUT NATIONAL DE LA RECHERCHE SCIENTIFIQUE, published 2026)
